Results on six molecules are retold here after article PMC10076330.

The chains behind the UniProt entries cited, without tags or fusion partners.
UniProt P63279: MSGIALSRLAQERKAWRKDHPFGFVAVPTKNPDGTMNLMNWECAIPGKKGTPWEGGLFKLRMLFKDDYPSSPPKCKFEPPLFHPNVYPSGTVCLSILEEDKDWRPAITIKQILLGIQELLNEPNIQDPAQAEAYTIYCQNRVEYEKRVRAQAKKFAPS
UniProt P36405: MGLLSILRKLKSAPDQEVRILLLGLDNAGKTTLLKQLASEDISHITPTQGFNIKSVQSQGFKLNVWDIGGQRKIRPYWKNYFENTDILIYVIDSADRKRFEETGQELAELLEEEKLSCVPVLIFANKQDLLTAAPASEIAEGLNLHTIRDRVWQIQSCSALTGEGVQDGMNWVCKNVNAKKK

Results are given in words; binding and its absence hold for the method and conditions named. In cells and extracts the contact can be indirect. Some binding calls cover weakened binding; strength is not graded here.

Assay [1] deals with UBC9 (SUMO-conjugating enzyme), endogenous (human (endogenous in RCTE)) (UniProt P63279). The assay is described as follows: co-IP; endogenous proteins in RCTE cell lysate; IP buffer (25 mM Tris-HCl pH 7.4, 10 mM KCl, 1.5 mM MgCl2, 1 mM EDTA, 1 mM EGTA, 150 mM NaCl, 0.5% NP-40); primary antibody or IgG control with protein-G beads overnight at 4 °C; western blot; cells with or without irradiation (day 7), WT, ARL3-/- or ARL13B-deficient cells. For orientation: A western blot detects proteins with antibodies after separation by electrophoresis.

The target in another assay is Flag-UBC9 (human) (UniProt P63279). The assay can be described thus: co-IP; lysate of transfected HEK293T cells; IP buffer (25 mM Tris-HCl pH 7.4, 10 mM KCl, 1.5 mM MgCl2, 1 mM EDTA, 1 mM EGTA, 150 mM NaCl, 0.5% NP-40); protein-G beads overnight at 4 °C; western blot; with or without overexpressed ARL3 (Fig. 4h).
The target in assay [2] is UBC9 (SUMO-conjugating enzyme), endogenous (human (endogenous in RCTE)) (UniProt P63279). The assay is described as follows: co-IP; RCTE cells overexpressing Myc-ARL3 WT, DA or DN, day 7 after irradiation; endogenous UBC9 immunoprecipitated with Myc-ARL3 or FBF1; western blot.
Assay [3] deals with T1, FBF1 (transition fiber protein), endogenous (human (endogenous in RCTE)) (UniProt Q8TES7).
T1 sequence: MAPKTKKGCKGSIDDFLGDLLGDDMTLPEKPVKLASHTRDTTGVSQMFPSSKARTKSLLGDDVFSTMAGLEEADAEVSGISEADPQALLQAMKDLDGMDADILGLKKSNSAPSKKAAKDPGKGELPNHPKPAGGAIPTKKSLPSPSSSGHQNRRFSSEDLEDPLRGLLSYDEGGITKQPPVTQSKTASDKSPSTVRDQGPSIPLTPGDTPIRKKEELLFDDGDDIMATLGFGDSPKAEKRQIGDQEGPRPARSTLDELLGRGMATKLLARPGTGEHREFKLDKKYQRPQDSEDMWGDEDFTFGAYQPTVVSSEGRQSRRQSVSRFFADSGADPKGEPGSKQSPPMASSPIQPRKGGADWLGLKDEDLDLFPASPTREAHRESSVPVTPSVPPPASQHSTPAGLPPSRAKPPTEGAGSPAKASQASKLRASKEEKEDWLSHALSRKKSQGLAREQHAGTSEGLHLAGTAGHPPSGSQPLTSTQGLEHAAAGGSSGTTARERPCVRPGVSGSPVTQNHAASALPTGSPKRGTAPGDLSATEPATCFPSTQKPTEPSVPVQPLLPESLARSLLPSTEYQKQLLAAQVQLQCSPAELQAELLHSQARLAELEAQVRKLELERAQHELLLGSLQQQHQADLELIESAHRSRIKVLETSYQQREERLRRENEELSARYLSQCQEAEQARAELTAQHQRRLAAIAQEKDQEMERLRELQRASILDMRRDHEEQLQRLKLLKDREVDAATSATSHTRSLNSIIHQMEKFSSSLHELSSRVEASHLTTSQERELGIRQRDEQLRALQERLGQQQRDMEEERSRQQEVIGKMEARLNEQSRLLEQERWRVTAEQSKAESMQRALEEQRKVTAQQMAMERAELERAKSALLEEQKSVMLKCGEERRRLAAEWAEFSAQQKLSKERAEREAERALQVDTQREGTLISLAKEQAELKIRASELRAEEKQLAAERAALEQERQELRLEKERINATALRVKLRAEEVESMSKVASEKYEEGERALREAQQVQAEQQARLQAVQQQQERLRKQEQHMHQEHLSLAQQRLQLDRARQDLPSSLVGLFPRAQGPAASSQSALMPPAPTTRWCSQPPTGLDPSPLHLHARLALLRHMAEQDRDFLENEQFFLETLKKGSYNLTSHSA
The assay is described as follows: co-IP; endogenous proteins in RCTE cell lysate; IP buffer (25 mM Tris-HCl pH 7.4, 10 mM KCl, 1.5 mM MgCl2, 1 mM EDTA, 1 mM EGTA, 150 mM NaCl, 0.5% NP-40); primary antibody or IgG control with protein-G beads overnight at 4 °C; western blot; cells with or without irradiation (day 7), WT, ARL3-/- or ARL13B-deficient cells.

Assay [4] addresses UBC9 (SUMO-conjugating enzyme), endogenous (human (endogenous in RCTE)) (UniProt P63279). The assay is described as follows: co-IP; RCTE cells overexpressing Myc-ARL3 WT, DA or DN, day 7 after irradiation; endogenous UBC9 immunoprecipitated with Myc-ARL3 or FBF1; western blot. The source holds these as a separate data set.
For assay [5], the target named is T2, SENP1 (SUMO protease), endogenous (human (endogenous in RCTE)) (UniProt Q9P0U3).
T2 sequence: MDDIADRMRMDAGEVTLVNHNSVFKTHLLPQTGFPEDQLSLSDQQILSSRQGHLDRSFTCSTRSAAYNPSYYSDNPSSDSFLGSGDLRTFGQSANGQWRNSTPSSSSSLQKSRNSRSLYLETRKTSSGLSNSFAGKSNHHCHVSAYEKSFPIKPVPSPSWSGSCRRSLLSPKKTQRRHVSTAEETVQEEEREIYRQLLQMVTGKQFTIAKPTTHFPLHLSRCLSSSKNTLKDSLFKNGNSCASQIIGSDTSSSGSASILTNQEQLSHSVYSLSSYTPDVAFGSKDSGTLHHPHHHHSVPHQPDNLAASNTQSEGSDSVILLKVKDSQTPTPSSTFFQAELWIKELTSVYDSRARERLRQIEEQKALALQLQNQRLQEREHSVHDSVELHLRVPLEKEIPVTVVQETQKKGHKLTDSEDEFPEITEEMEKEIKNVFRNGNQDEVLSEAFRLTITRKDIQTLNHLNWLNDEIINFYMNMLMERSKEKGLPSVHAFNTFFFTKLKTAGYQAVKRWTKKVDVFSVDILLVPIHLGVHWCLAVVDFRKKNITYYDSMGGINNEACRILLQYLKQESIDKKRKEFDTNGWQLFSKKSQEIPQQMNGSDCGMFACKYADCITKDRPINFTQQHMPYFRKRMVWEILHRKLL
The assay can be described thus: co-IP; endogenous proteins in RCTE cell lysate; IP buffer (25 mM Tris-HCl pH 7.4, 10 mM KCl, 1.5 mM MgCl2, 1 mM EDTA, 1 mM EGTA, 150 mM NaCl, 0.5% NP-40); primary antibody or IgG control with protein-G beads overnight at 4 °C; western blot; cells with or without irradiation (day 7), WT, ARL3-/- or ARL13B-deficient cells.

Assay [6] has as its target UBC9 (SUMO-conjugating enzyme), endogenous (human (endogenous in RCTE)) (UniProt P63279). The description is as above. This is another data set of the same source.

For “ARL3 (ciliary GTPase), endogenous (from UniProt P36405 1-182)”, the binding entry in assay [1] was “binds”.

Consider “ARL3, overexpressed in 293T cells (from UniProt P36405 1-182)”, for which, in the assay with Flag-UBC9 (human), the binding result is on record as “binds”.

Take “Myc-ARL3 wild type, overexpressed in RCTE cells (from UniProt P36405 1-182)”: in assay [2], the binding result is listed as “binds”.

With “UBC9 (SUMO-conjugating enzyme), endogenous (from UniProt P63279 1-158)”, in assay [3], the binding entry was “binds”.

B1: FBF1 (transition fiber protein), endogenous (protein, UniProt Q8TES7-6 1-1148)
chain: T1 sequence
On to B1, for which the binding result in assay [4], in assay [5] and in assay [6] was “binds” each time.

B2: FBF1, expressed in 293T cells (protein, UniProt Q8TES7-6 1-1148)
chain: T1 sequence
For B2, in the assay with Flag-UBC9 (human), the binding entry is recorded as “binds”.
